From paper PMC6376265, “A sequence conserved between CD5 and CD6 binds an FERM domain and exerts a restraint on T‐cell activation” (Immunology, 2018)
Results are given in words; binding and its absence hold for the method and conditions named. Some entries that bind do so weakly or less than the wild type.

Amino acid sequences for entries named in this document (tags omitted). Residues count along the entry.
UniProt P26043, residues 1-310: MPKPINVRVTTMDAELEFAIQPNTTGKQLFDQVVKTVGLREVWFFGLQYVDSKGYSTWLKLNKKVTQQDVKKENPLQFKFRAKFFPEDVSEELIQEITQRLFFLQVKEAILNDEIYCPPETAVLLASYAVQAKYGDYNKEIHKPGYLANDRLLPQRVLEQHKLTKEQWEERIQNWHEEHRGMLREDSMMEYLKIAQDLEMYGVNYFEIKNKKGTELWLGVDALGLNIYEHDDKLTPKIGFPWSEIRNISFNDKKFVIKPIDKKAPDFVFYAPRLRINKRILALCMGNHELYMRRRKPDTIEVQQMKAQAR

Columns and labels:
[1] = biological target: T1, CD5 SDSDY peptide (human); assay: SPR; biotinylated peptides immobilized on streptavidin-coated CM5 chips, BIAcore 3000; radixin FERM injected at 37°; streptavidin flow cell subtracted; equilibrium binding fitted with a 1:1 Langmuir model; both purified
T1 sequence (peptide, biotinylated at the N terminus): PDNSSDSDYDLHGAQRL

[2] = biological target: T2, CD6 SDSDY peptide (human); assay: as above
T2 sequence (peptide, biotinylated at the N terminus): GSDSDYEHYDFSAQ

binding [1]: binds weakly | binding [2]: binds weakly
Substance: radixin FERM domain (amino acid residues 1-310) (from UniProt P26043 1-310) (domain or fragment)
